Reference: patent US20130045962A1, “PEPTIDE DEFORMYLASE INHIBITORS” (priority 2007, published 2013)
Some of these results come from one statement about several compounds together. At least one compound was matched to its structure with a doubt left.

Sequences of proteins named here, by UniProt entry; tags and fusion partners are left off. A change or cut given only in a name is not applied to a line headed by its entry.
UniProt P44786: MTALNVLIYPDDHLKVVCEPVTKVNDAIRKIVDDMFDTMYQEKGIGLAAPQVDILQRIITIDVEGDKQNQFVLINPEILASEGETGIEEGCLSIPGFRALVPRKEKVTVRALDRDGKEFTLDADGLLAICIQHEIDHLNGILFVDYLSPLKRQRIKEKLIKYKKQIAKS

Target: Haemophilus influenzae PDF (Haemophilus influenzae, UniProt P44786)
Experiment: PDF IC50 assay (FDH-coupled), H. influenzae PDF
Assay type: biochemical
Conditions: read-out: IC50, inhibition of H. influenzae PDF activity

Structure (SMILES) | IC50
CN(Cc1csc(N)n1)c1nc(Cl)nc(NNC(=O)[C@H](CC2CCCC2)CN(O)C=O)c1F [Example 223, N-[(2R)-3-[2-(6-{[(2-Amino-1,3-thiazol-4-yl)methyl](methyl)amino}-2-chloro-5-fluoro-4-pyrimidinyl)hydrazino]-2-(cyclopentylmethyl)-3-oxopropyl]-N-hydroxyformamide] | ≤ 100 nM
O=CN(O)C[C@@H](CC1CCCC1)C(=O)NNc1nc(Cl)nc(N2CCC[C@H]2CN2CCCC2)c1F [Example 224, [(2R)-3-(2-{2-Chloro-5-fluoro-6-[(2S)-2-(1-pyrrolidinylmethyl)-1-pyrrolidinyl]-4-pyrimidinyl}hydrazino)-2-(cyclopentylmethyl)-3-oxopropyl]hydroxyformamide] | ≤ 100 nM
Cc1nc(NNC(=O)[C@H](CC2CCCC2)CN(O)C=O)c(F)c(Nc2ccccc2)n1 [Example 225, ((2R)-2-(Cyclopentylmethyl)-3-{2-[5-fluoro-2-methyl-6-(phenylamino)-4-pyrimidinyl]hydrazino}-3-oxopropyl)hydroxyformamide] | ≤ 100 nM
CN1CCN(c2nc(Cl)nc(NNC(=O)[C@H](CC3CCCC3)CN(O)C=O)c2F)[C@H]2CCCC[C@H]21 [Example 226, [(2R)-3-{2-[2-Chloro-5-fluoro-6-(4-methyloctahydro-1(2H)-quinoxalinyl)-4-pyrimidinyl]hydrazino}-2-(cyclopentylmethyl)-3-oxopropyl]hydroxyformamide] | ≤ 100 nM
Cc1nc(NNC(=O)[C@H](CC2CCCC2)CN(O)C=O)c(F)c(N2CCN(C)[C@@H]3CCCC[C@@H]32)n1 [Example 227, ((2R)-2-(Cyclopentylmethyl)-3-{2-[5-fluoro-2-methyl-6-(4-methyloctahydro-1(2H)-quinoxalinyl)-4-pyrimidinyl]hydrazino}-3-oxopropyl)hydroxyformamide] | ≤ 100 nM
O=CN(O)C[C@@H](CC1CCCC1)C(=O)NNc1nc(Cl)nc(N2CCC[C@@H]2CN2CCOCC2)c1F [Example 229, [(2R)-3-(2-{2-Chloro-5-fluoro-6-[(2R)-2-(4-morpholinylmethyl)-1-pyrrolidinyl]-4-pyrimidinyl}hydrazino)-2-(cyclopentylmethyl)-3-oxopropyl]hydroxyformamide] | ≤ 100 nM
CCN(C)C1(CC)CN(c2nc(Cl)nc(NNC(=O)[C@H](CC3CCCC3)CN(O)C=O)c2F)C1 [Example 230, [(2R)-3-[2-(2-Chloro-6-{3-ethyl-3-[ethyl(methyl)amino]-1-azetidinyl}-5-fluoro-4-pyrimidinyl)hydrazino]-2-(cyclopentylmethyl)-3-oxopropyl]hydroxyformamide] | ≤ 100 nM
CSc1nc(NNC(=O)[C@H](CC2CCCC2)CN(O)C=O)c(F)c(N2CCN3CCOC[C@@H]3C2)n1 [Example 231, ((2R)-2-(Cyclopentylmethyl)-3-{2-[5-fluoro-6-[(9aS)-hexahydropyrazino[2,1-c][1,4]oxazin-8(1H)-yl]-2-(methylthio)-4-pyrimidinyl]hydrazino}-3-oxopropyl)hydroxyformamide] | ≤ 100 nM
CN(C)C[C@@H]1CCCN1c1nc(Cl)nc(NNC(=O)[C@H](CC2CCCC2)CN(O)C=O)c1F [Example 232, [(2R)-3-[2-(2-Chloro-6-{(2S)-2-[(dimethylamino)methyl]-1-pyrrolidinyl}-5-fluoro-4-pyrimidinyl)hydrazino]-2-(cyclopentylmethyl)-3-oxopropyl]hydroxyformamide] | ≤ 100 nM
O=CN(O)C[C@@H](CC1CCCC1)C(=O)NNc1nc(Cl)nc(NCc2cscn2)c1F [Example 233, [(2R)-3-(2-{2-Chloro-5-fluoro-6-[(1,3-thiazol-4-ylmethyl)amino]-4-pyrimidinyl}hydrazino)-2-(cyclopentylmethyl)-3-oxopropyl]hydroxyformamide] | ≤ 100 nM
O=CN(O)C[C@@H](CC1CCCC1)C(=O)NNc1nc(Cl)nc(N2CCC[C@@H]2CF)c1F [Example 234, [(2R)-3-(2-{2-Chloro-5-fluoro-6-[(2R)-2-(fluoromethyl)-1-pyrrolidinyl]-4-pyrimidinyl}hydrazino)-2-(cyclopentylmethyl)-3-oxopropyl]hydroxyformamide] | ≤ 100 nM
Cc1nc(NNC(=O)[C@H](CC2CCCC2)CN(O)C=O)c(F)c(N2CCC[C@H]2CN(C)C)n1 [Example 235, {(2R)-2-(Cyclopentylmethyl)-3-[2-(6-{(2S)-2-[(dimethylamino)methyl]-1-pyrrolidinyl}-5-fluoro-2-methyl-4-pyrimidinyl)hydrazino]-3-oxopropyl}hydroxyformamide] | ≤ 100 nM
C[C@@H]1COCCN1c1nc(Cl)nc(NNC(=O)[C@H](CC2CCCC2)CN(O)C=O)c1F [Example 236, [(2R)-3-(2-{2-Chloro-5-fluoro-6-[(3R)-3-methyl-4-morpholinyl]-4-pyrimidinyl}hydrazino)-2-(cyclopentylmethyl)-3-oxopropyl]hydroxyformamide] | ≤ 100 nM
C[C@H]1CN(c2nc(Cl)nc(NNC(=O)[C@H](CC3CCCC3)CN(O)C=O)c2F)[C@@H](C)CN1C [Example 237, N-[(2R)-3-(2-{2-Chloro-5-fluoro-6-[(2S,5S)-2,4,5-trimethyl-1-piperazinyl]-4-pyrimidinyl}hydrazino)-2-(cyclopentylmethyl)-3-oxopropyl]-N-hydroxyformamide] | ≤ 100 nM
Cc1nc(NNC(=O)[C@H](CC2CCCC2)CN(O)C=O)c(F)c(Nc2ccc(F)cn2)n1 [Example 238, [(2R)-2-(Cyclopentylmethyl)-3-(2-{5-fluoro-6-[(5-fluoro-2-pyridinyl)amino]-2-methyl-4-pyrimidinyl}hydrazino)-3-oxopropyl]hydroxyformamide] | ≤ 100 nM
N#CCCN(c1nc(Cl)nc(NNC(=O)[C@H](CC2CCCC2)CN(O)C=O)c1F)C1CC1 [Example 239, [(2R)-3-(2-{2-Chloro-6-[(2-cyanoethyl)(cyclopropyl)amino]-5-fluoro-4-pyrimidinyl}hydrazino)-2-(cyclopentylmethyl)-3-oxopropyl]hydroxyformamide] | ≤ 100 nM
Cc1nc(NNC(=O)[C@H](CC2CCCC2)CN(O)C=O)c(F)c(N2CCOC[C@@H]2C)n1 [Example 240, [(2R)-2-(Cyclopentylmethyl)-3-(2-{5-fluoro-2-methyl-6-[(3S)-3-methyl-4-morpholinyl]-4-pyrimidinyl}hydrazino)-3-oxopropyl]hydroxyformamide] | ≤ 100 nM
C[C@H]1COCCN1c1nc(Cl)nc(NNC(=O)[C@H](CC2CCCC2)CN(O)C=O)c1F [Example 241, [(2R)-3-(2-{2-Chloro-5-fluoro-6-[(3S)-3-methyl-4-morpholinyl]-4-pyrimidinyl}hydrazino)-2-(cyclopentylmethyl)-3-oxopropyl]hydroxyformamide] | ≤ 100 nM
C[C@H]1CN(c2nc(Cl)nc(NNC(=O)[C@H](CC3CCCC3)CN(O)C=O)c2F)C[C@H](C)N1C [Example 242, N-[(2R)-3-(2-{2-Chloro-5-fluoro-6-[(3S,5S)-3,4,5-trimethyl-1-piperazinyl]-4-pyrimidinyl}hydrazino)-2-(cyclopentylmethyl)-3-oxopropyl]-N-hydroxyformamide] | ≤ 100 nM
Cc1nc(NNC(=O)[C@H](CC2CCCC2)CN(O)C=O)c(F)c(N2CCC[C@H]2CN2CCOCC2)n1 [Example 243, [(2R)-2-(Cyclopentylmethyl)-3-(2-{5-fluoro-2-methyl-6-[(2S)-2-(4-morpholinylmethyl)-1-pyrrolidinyl]-4-pyrimidinyl}hydrazino)-3-oxopropyl]hydroxyformamide] | ≤ 100 nM
O=CN(O)C[C@@H](CC1CCCC1)C(=O)NNc1nc(Cl)nc(N2CC(F)C2)c1F [Example 244, [(2R)-3-{2-[2-Chloro-5-fluoro-6-(3-fluoro-1-azetidinyl)-4-pyrimidinyl]hydrazino}-2-(cyclopentylmethyl)-3-oxopropyl]hydroxyformamide] | ≤ 100 nM
O=CN(O)C[C@@H](CC1CCCC1)C(=O)NNc1nc(Cl)nc(N2CCC[C@H]2CO)c1F [Example 245, [(2R)-3-(2-{2-Chloro-5-fluoro-6-[(2S)-2-(hydroxymethyl)-1-pyrrolidinyl]-4-pyrimidinyl}hydrazino)-2-(cyclopentylmethyl)-3-oxopropyl]hydroxyformamide] | ≤ 100 nM
CN1CCCN1c1nc(Cl)nc(NNC(=O)[C@H](CC2CCCC2)CN(O)C=O)c1F [Example 246, [(2R)-3-{2-[2-Chloro-5-fluoro-6-(2-methyl-1-pyrazolidinyl)-4-pyrimidinyl]hydrazino}-2-(cyclopentylmethyl)-3-oxopropyl]hydroxyformamide] | ≤ 100 nM
Cc1nc(NNC(=O)[C@H](CC2CCCC2)CN(O)C=O)c(F)c(N2CCC[C@H]2CCO)n1 [Example 247, [(2R)-2-(Cyclopentylmethyl)-3-(2-{5-fluoro-6-[(2S)-2-(2-hydroxyethyl)-1-pyrrolidinyl]-2-methyl-4-pyrimidinyl}hydrazino)-3-oxopropyl]hydroxyformamide] | ≤ 100 nM
O=CN(O)C[C@@H](CC1CCCC1)C(=O)NNc1nc(Cl)nc(N2CCC[C@H]2CCO)c1F [Example 248, [(2R)-3-(2-{2-Chloro-5-fluoro-6-[(2S)-2-(2-hydroxyethyl)-1-pyrrolidinyl]-4-pyrimidinyl}hydrazino)-2-(cyclopentylmethyl)-3-oxopropyl]hydroxyformamide] | ≤ 100 nM
CN(CCO)C[C@@H]1CCCN1c1nc(Cl)nc(NNC(=O)[C@H](CC2CCCC2)CN(O)C=O)c1F [Example 249, [(2R)-3-{2-[2-Chloro-5-fluoro-6-((2S)-2-{[(2-hydroxyethyl)(methyl)amino]methyl}-1-pyrrolidinyl)-4-pyrimidinyl]hydrazino}-2-(cyclopentylmethyl)-3-oxopropyl]hydroxyformamide] | ≤ 100 nM
COCCN(C)C[C@@H]1CCCN1c1nc(Cl)nc(NNC(=O)[C@H](CC2CCCC2)CN(O)C=O)c1F [Example 250, [(2R)-3-(2-{2-Chloro-5-fluoro-6-[(2S)-2-({methyl[2-(methyloxy)ethyl]amino}methyl)-1-pyrrolidinyl]-4-pyrimidinyl}hydrazino)-2-(cyclopentylmethyl)-3-oxopropyl]hydroxyformamide] | ≤ 100 nM
O=CN(O)C[C@@H](CC1CCCC1)C(=O)NNc1nc(Cl)nc(N2CC(F)(F)C2)c1F [Example 251, [(2R)-3-{2-[2-Chloro-6-(3,3-difluoro-1-azetidinyl)-5-fluoro-4-pyrimidinyl]hydrazino}-2-(cyclopentylmethyl)-3-oxopropyl]hydroxyformamide] | ≤ 100 nM
